Record: PubChem BioAssay AID1259405 (NCATS, 2018)

Purpose: 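Mouse-designed siRNAs used to find CHO productivity engineering targets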 (primary screen)
Cells: Chinese hamster CHO-K1 ovary cells with stable secreted eGFP expression
Reagent: single siRNA against mouse genes, 0.8 pmol siRNA per well (2 µl of 400 nM stock)
Timing: 3 days
Measurement: 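Percent of the per-plate non-targeting control median for intracellular GFP per well by laser scanning cytometry and for cell viability by ATP luminescence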
Scale: GFP, % of control: higher = more GFP per well, higher productivity; viability (ATP), % of control: higher = more viable cells (more ATP)
Active means: 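Called active when intracellular GFP, relative to negative control, is at or above 120%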
The whole screen tested about 50,000 reagents; below is a random part of them. In the full data, about 4,000 (8%) are marked active. 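Mouse siRNA library applied to hamster cells; one well for each siRNA.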 The numbers tell different reagents against one gene apart. No sequences are given here.

Gbp4 (guanylate binding protein 4) #1
- GFP, % of control: 68.6
- viability (ATP), % of control: 56.2
- outcome: inactive

Gbp4 (guanylate binding protein 4) #2
- GFP, % of control: 47.7
- viability (ATP), % of control: 64.3
- outcome: inactive

Gbp4 (guanylate binding protein 4) #3
- GFP, % of control: 31.8
- viability (ATP), % of control: 25.6
- outcome: inactive

Limd2 (LIM domain containing 2) #1
- GFP, % of control: 143
- viability (ATP), % of control: 110
- outcome: active

Limd2 (LIM domain containing 2) #2
- GFP, % of control: 72.8
- viability (ATP), % of control: 112
- outcome: inactive

Limd2 (LIM domain containing 2) #3
- GFP, % of control: 92.7
- viability (ATP), % of control: 103
- outcome: inactive

Fubp1 (far upstream element (FUSE) binding protein 1) #1
- GFP, % of control: 58
- viability (ATP), % of control: 60.3
- outcome: inactive

Fubp1 (far upstream element (FUSE) binding protein 1) #2
- GFP, % of control: 95.2
- viability (ATP), % of control: 88.7
- outcome: inactive

Fubp1 (far upstream element (FUSE) binding protein 1) #3
- GFP, % of control: 89.2
- viability (ATP), % of control: 65.7
- outcome: inactive

Spopl (speckle-type BTB/POZ protein-like) #1
- GFP, % of control: 141
- viability (ATP), % of control: 104
- outcome: active

Spopl (speckle-type BTB/POZ protein-like) #2
- GFP, % of control: 106
- viability (ATP), % of control: 96.6
- outcome: inactive

Spopl (speckle-type BTB/POZ protein-like) #3
- GFP, % of control: 81.1
- viability (ATP), % of control: 87.4
- outcome: inactive

Sirpa (signal-regulatory protein alpha) #1
- GFP, % of control: 86.9
- viability (ATP), % of control: 87.6
- outcome: inactive

Sirpa (signal-regulatory protein alpha) #2
- GFP, % of control: 84.7
- viability (ATP), % of control: 78.9
- outcome: inactive

Next part (4 carried over from the part before).
Spopl (speckle-type BTB/POZ protein-like) #2
- GFP, % of control: 106
- viability (ATP), % of control: 96.6
- outcome: inactive

Spopl (speckle-type BTB/POZ protein-like) #3
- GFP, % of control: 81.1
- viability (ATP), % of control: 87.4
- outcome: inactive

Sirpa (signal-regulatory protein alpha) #1
- GFP, % of control: 86.9
- viability (ATP), % of control: 87.6
- outcome: inactive

Sirpa (signal-regulatory protein alpha) #2
- GFP, % of control: 84.7
- viability (ATP), % of control: 78.9
- outcome: inactive

Ormdl3 (ORM1-like 3 (S. cerevisiae)) #1
- GFP, % of control: 102
- viability (ATP), % of control: 38.2
- outcome: inactive

Ormdl3 (ORM1-like 3 (S. cerevisiae)) #2
- GFP, % of control: 143
- viability (ATP), % of control: 82.6
- outcome: active

Ormdl3 (ORM1-like 3 (S. cerevisiae)) #3
- GFP, % of control: 95.7
- viability (ATP), % of control: 107
- outcome: inactive

Clca3b (chloride channel accessory 3B) #1
- GFP, % of control: 76.5
- viability (ATP), % of control: 125
- outcome: inactive

Clca3b (chloride channel accessory 3B) #2
- GFP, % of control: 64.1
- viability (ATP), % of control: 80.3
- outcome: inactive

Clca3b (chloride channel accessory 3B) #3
- GFP, % of control: 70
- viability (ATP), % of control: 77.1
- outcome: inactive

Or8c16 (olfactory receptor family 8 subfamily C member 16) #1
- GFP, % of control: 49.4
- viability (ATP), % of control: 40.5
- outcome: inactive

Or8c16 (olfactory receptor family 8 subfamily C member 16) #2
- GFP, % of control: 165
- viability (ATP), % of control: 99.4
- outcome: active

Or8c16 (olfactory receptor family 8 subfamily C member 16) #3
- GFP, % of control: 104
- viability (ATP), % of control: 90.4
- outcome: inactive

Atf2 (activating transcription factor 2) #1
- GFP, % of control: 48.6
- viability (ATP), % of control: 56.6
- outcome: inactive

Atf2 (activating transcription factor 2) #2
- GFP, % of control: 71.9
- viability (ATP), % of control: 79.3
- outcome: inactive

Tacstd2 (tumor-associated calcium signal transducer 2) #1
- GFP, % of control: 105
- viability (ATP), % of control: 37.2
- outcome: inactive

Tacstd2 (tumor-associated calcium signal transducer 2) #2
- GFP, % of control: 81.5
- viability (ATP), % of control: 51.2
- outcome: inactive

Tacstd2 (tumor-associated calcium signal transducer 2) #3
- GFP, % of control: 72.9
- viability (ATP), % of control: 54.7
- outcome: inactive
